Test results reported in ChEMBL document CHEMBL4316593 (Eur J Med Chem, 2019).
Further values from the same series stand in other lists.

What was measured:
Type in all cases: cell-based
Conditions in all cases: U-87MG ATCC
[1] = Inhibition of RTK/PI3K/AKT/mTOR signaling in human U87 cells assessed as down regulation of TRIM36 gene expression at cytotoxic IC50 measured after 48 hrs relative to control
[2] = Inhibition of RTK/PI3K/AKT/mTOR signaling in human U87 cells assessed as up regulation of adhesion G protein-coupled receptor E5 gene expression at cytotoxic IC50 measured after 48 hrs relative to control
[3] = Inhibition of RTK/PI3K/AKT/mTOR signaling in human U87 cells assessed as down regulation of PPP2R1A gene expression at cytotoxic IC50 measured after 48 hrs relative to control
[4] = Inhibition of RTK/PI3K/AKT/mTOR signaling in human U87 cells assessed as up regulation of GABRD gene expression at cytotoxic IC50 measured after 48 hrs relative to control
[5] = Inhibition of RTK/PI3K/AKT/mTOR signaling in human U87 cells assessed as up regulation of Kruppel like factor 2 gene expression at cytotoxic IC50 measured after 48 hrs relative to control
[6] = Inhibition of RTK/PI3K/AKT/mTOR signaling in human U87 cells assessed as up regulation of nuclear factor, erythroid 2 like 3 gene expression at cytotoxic IC50 measured after 48 hrs relative to control
[7] = Inhibition of RTK/PI3K/AKT/mTOR signaling in human U87 cells assessed as down regulation of UFD1 gene expression at cytotoxic IC50 measured after 48 hrs relative to control
[8] = Inhibition of RTK/PI3K/AKT/mTOR signaling in human U87 cells assessed as up regulation of KRT7 gene expression at cytotoxic IC50 measured after 48 hrs relative to control
[9] = Inhibition of RTK/PI3K/AKT/mTOR signaling in human U87 cells assessed as down regulation of RAB21 gene expression at cytotoxic IC50 measured after 48 hrs relative to control
[10] = Inhibition of RTK/PI3K/AKT/mTOR signaling in human U87 cells assessed as up regulation of SH3 domain containing kinase binding protein 1 gene expression at cytotoxic IC50 measured after 48 hrs relative to control
[11] = Inhibition of RTK/PI3K/AKT/mTOR signaling in human U87 cells assessed as up regulation of RNA binding motif (RNP1, RRM) protein 3 gene expression at cytotoxic IC50 measured after 48 hrs relative to control
[12] = Inhibition of RTK/PI3K/AKT/mTOR signaling in human U87 cells assessed as up regulation of four jointed box 1 gene expression at cytotoxic IC50 measured after 48 hrs relative to control
[13] = Inhibition of RTK/PI3K/AKT/mTOR signaling in human U87 cells assessed as up regulation of transmembrane protein 39A gene expression at cytotoxic IC50 measured after 48 hrs relative to control
[14] = Inhibition of RTK/PI3K/AKT/mTOR signaling in human U87 cells assessed as up regulation of carbohydrate sulfotransferase 6 gene expression at cytotoxic IC50 measured after 48 hrs relative to control
[15] = Inhibition of RTK/PI3K/AKT/mTOR signaling in human U87 cells assessed as down regulation of METAP2 gene expression at cytotoxic IC50 measured after 48 hrs relative to control
[16] = Inhibition of RTK/PI3K/AKT/mTOR signaling in human U87 cells assessed as down regulation of FAM126B gene expression at cytotoxic IC50 measured after 48 hrs relative to control
[17] = Inhibition of RTK/PI3K/AKT/mTOR signaling in human U87 cells assessed as up regulation of TP53 gene expression at cytotoxic IC50 measured after 48 hrs relative to control
[18] = Inhibition of RTK/PI3K/AKT/mTOR signaling in human U87 cells assessed as up regulation of KDELR3 gene expression at cytotoxic IC50 measured after 48 hrs relative to control
[19] = Inhibition of RTK/PI3K/AKT/mTOR signaling in human U87 cells assessed as down regulation of PIGS gene expression at cytotoxic IC50 measured after 48 hrs relative to control
[20] = Inhibition of RTK/PI3K/AKT/mTOR signaling in human U87 cells assessed as down regulation of XRCC3 gene expression at cytotoxic IC50 measured after 48 hrs relative to control
[21] = Inhibition of RTK/PI3K/AKT/mTOR signaling in human U87 cells assessed as down regulation of GRHL1 gene expression at cytotoxic IC50 measured after 48 hrs relative to control
[22] = Inhibition of RTK/PI3K/AKT/mTOR signaling in human U87 cells assessed as down regulation of BTRC gene expression at cytotoxic IC50 measured after 48 hrs relative to control
[23] = Inhibition of RTK/PI3K/AKT/mTOR signaling in human U87 cells assessed as down regulation of MXD1 gene expression at cytotoxic IC50 measured after 48 hrs relative to control
[24] = Inhibition of RTK/PI3K/AKT/mTOR signaling in human U87 cells assessed as up regulation of intraflagellar transport 140 gene expression at cytotoxic IC50 measured after 48 hrs relative to control
[25] = Inhibition of RTK/PI3K/AKT/mTOR signaling in human U87 cells assessed as down regulation of SEMA3C gene expression at cytotoxic IC50 measured after 48 hrs relative to control
[26] = Inhibition of RTK/PI3K/AKT/mTOR signaling in human U87 cells assessed as up regulation of family with sequence similarity 114 member A1 gene expression at cytotoxic IC50 measured after 48 hrs relative to control
[27] = Inhibition of RTK/PI3K/AKT/mTOR signaling in human U87 cells assessed as down regulation of SLC16A14 gene expression at cytotoxic IC50 measured after 48 hrs relative to control
[28] = Inhibition of RTK/PI3K/AKT/mTOR signaling in human U87 cells assessed as down regulation of C14orf166 gene expression at cytotoxic IC50 measured after 48 hrs relative to control
[29] = Inhibition of RTK/PI3K/AKT/mTOR signaling in human U87 cells assessed as down regulation of MTMR6 gene expression at cytotoxic IC50 measured after 48 hrs relative to control
[30] = Inhibition of RTK/PI3K/AKT/mTOR signaling in human U87 cells assessed as down regulation of GBF1 gene expression at cytotoxic IC50 measured after 48 hrs relative to control
[31] = Inhibition of RTK/PI3K/AKT/mTOR signaling in human U87 cells assessed as down regulation of MED13 gene expression at cytotoxic IC50 measured after 48 hrs relative to control
[32] = Inhibition of RTK/PI3K/AKT/mTOR signaling in human U87 cells assessed as up regulation of NRSN2 gene expression at cytotoxic IC50 measured after 48 hrs relative to control

CC(=O)C(=NNc1ccccc1C#N)C(C)=O
log2FC [1]: -1.61
log2FC [2]: 1.24
log2FC [3]: -0.705
log2FC [4]: 1.61
log2FC [5]: 1.17
log2FC [6]: 1.2
log2FC [7]: -0.916
log2FC [8]: 2.99
log2FC [9]: -0.84
log2FC [10]: 0.849
log2FC [11]: 1.03
log2FC [12]: 1.43
log2FC [13]: 0.739
log2FC [14]: 1.32
log2FC [15]: -0.416
log2FC [16]: -1.29
log2FC [17]: 0.532
log2FC [18]: 2.04
log2FC [19]: -0.715
log2FC [20]: -1.33
log2FC [21]: -1.16
log2FC [22]: -0.852
log2FC [23]: -1.78
log2FC [24]: 0.971
log2FC [25]: -1.27
log2FC [26]: 0.729
log2FC [27]: -2.77
log2FC [28]: -0.409
log2FC [29]: -0.883
log2FC [30]: -0.76
log2FC [31]: -0.525
log2FC [32]: 3.25
